Measurements reported in patent publication US10058520B2, “Compositions and methods for treating alzheimer's disease and dementia” (Department of Veterans Affairs, priority 2007, dated 2018).
At least one compound was matched to its structure with a doubt left.

Key:
APP gene = experiment: RT-PCR of APP mRNA in brain of normal mice; assay type: in vivo; conditions: normal mouse brain, day 21; FIG. 2 and 3; APP 751 mRNA for hypothyroid mice
human Aβ 1-40 and 1-42 = experiment: ELISA for human Aβ in brain of R1.40 huAPP transgenic mice treated with T4; assay type: in vivo, R1.40 human APP transgenic mice; conditions: n=9 per group
Excerpt: In another study, we discovered that thyroid hormone down-regulates Aβ 1-40 and 1-42 in mice transgenic for the human APP gene. […] R1.40 human APP transgenic mice contain the entire human APP gene carried on a yeast artificial chromosome.
Mice used in these studies carried the complete human APP gene (huAPP), including the 5′ upstream promoter region, inserted into a yeast artificial chromosome (YAC) construct and are referred to as huAPP-YAC transgenic mice (R1.40 strain). The huAPP gene in these mice contained the Swedish mutation and is expressed in high pathology brain regions.
R1.40 mice were implanted with T4 containing slow release pellets for three weeks and ELISA specific for human Aβ was performed utilizing normalized protein from mouse brain cytosols. We observed a 30% decrease in human Aβ 1-42 levels and a 25% decrease in Aβ 1-40 levels in mice treated for three weeks with T4. […] Thus, it has been shown that low level thyroid hormone therapy substantially decreases human Aβ40 and Aβ42 levels in both normal and hypothyroid transgenic mice (n=9 animals per group ±SD).

spatial memory = experiment: Morris water maze in huAPP transgenic mice; assay type: in vivo; conditions: T4 90-day sustained release pellet 0.1 mg/pellet from 9 months, tested at 12 months; days 3-5 and 12-13; Tukey test; n=3; FIG. 10
APP isoforms = experiment: Western blot with anti-APP antibody on hemisected brain extracts; assay type: in vivo, mice; conditions: day 21, FIG. 4
Method: In FIG. 4, Western blots were performed utilizing anti-APP antibody on protein from the hemisected brain extracts.

mdm2 gene = experiment: mdm2 transcript quantification in mouse brain RNA; assay type: in vivo, mice; conditions: 21 day pellet implantation; FIG. 7

How did the “APP mRNA levels (RT-PCR) vs control animals” value (APP gene) turn out when NC(Cc1cc(I)c(Oc2cc(I)c(O)c(I)c2)c(I)c1)C(=O)O (centres unmarked) [T4, 3:5,3′:5′ tetra-iodothyronine] was run?
The value was “decreased”.

And the “Brain levels of total human Aβ42 and Aβ40” value (human Aβ 1-40 and 1-42)?
The value was “significantly decreased”.

And the “spatial memory (mean distance to the platform), Morris water maze” value (spatial memory)?
Its value is “significant improvement”.

And the “expression of APP isoforms (western blot) relative to euthyroid animals” value (APP isoforms)?
Its value is “overall decrease”.

What about the “mdm2 transcript content in mouse brain” value (mdm2 gene) of the same compound?
The value was “declined”.
